# The list shows a part of the results. Shown are side measurements of this screen, not its main read-out; they come without a call. Most of these compounds were active or inconclusive in the main read-out, so they are no random draw. Words in brackets tell the shape of the fitted curve; partial curves, single points and poor fits give uncertain potencies.
# Assay: qHTS Assay for Lipid Storage Modulators in Drosophila S3 Cells;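 on cell number change: cells counted by Cell Tracker Red CMTPX staining in the red channel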
# Conditions: BODIPY lipid droplet fluorescence, 18-24 h; for cell number change: measured here: cell count max response, cells fed with added oleic acid
# Method in brief: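 Laser-scanning cytometry quantifies lipid droplet accumulation (500–530 nm total intensity; droplet/cell object ratio) in oleic acid-fed (400 uM added) Drosophila S3 cells treated with a concentration series. 20 uM Triacsin C defined 100% inhibition.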
# [1] = measured here: cell number channel AC50, cells fed with added oleic acid
# [2] = measured here: lipid fluorescence (Fed channel) AC50, cells fed with added oleic acid
Compound,cell number change,AC50 [1],AC50 [2]
O=C(CNC(=O)c1ccccc1)OCCOc1cccc(Cl)c1,-75%,"29.1 µM [falling, single point]",
CCOc1c(Br)cc(/C=C(\C#N)C(=O)NC2CC2)cc1OC,2.7%,,"6.51 µM [falling, single point]"
O=C(CCN1C(=O)c2ccccc2S1(=O)=O)NCc1ccc(F)cc1,22.5%,"3.66 µM [rising, full curve, poor fit]","6.51 µM [rising, single point]"
COc1cccc(NC(=O)C(C)OC(=O)c2n[nH]c3ccccc23)c1 (centres undefined),-13%,,
Cc1ccc2[nH]c3c(=O)n(CCCN4CCOCC4)cnc3c2c1,-1.57%,,"6.51 µM [falling, single point]"
O=C(O)CC1(CC(=O)N2CCN(CCO)CC2)CCCC1,-32.2%,,
Cc1nn(-c2ccccc2)c(C)c1NC(=O)COC(=O)CC(C)c1ccccc1 (centres undefined),33.5%,"2.59 µM [rising, full curve]",
O=S(=O)(Nc1ccc(Br)cc1)c1cccc2cccnc12,7.91%,,"0.651 µM [falling, partial curve, poor fit]"
CCOC(=O)c1[nH]c(C)c(/C(O)=C2\C(=O)C(=O)N(CCN(C)C)C2c2ccc(C)o2)c1C (centres undefined),94.5%,"25.9 µM [rising, single point]",
Cc1ccc(CNC(=O)CCS(=O)(=O)c2cc3c(cc2Cl)NC(=O)CO3)cc1,-9.72%,,"20.6 µM [falling, partial curve]"
O=C1CN(S(=O)(=O)c2cc(C(F)(F)F)ccc2Cl)CCN1,-0.0705%,,"3.66 µM [rising, single point]"
O=C(OCC(=O)c1ccccc1Br)c1ccncc1,-30.7%,"0.0058 µM [falling, full curve, poor fit]",
CC(=O)N1C(=O)C2(C(C#N)=C(N)Oc3c2c(C)nn3-c2ccccc2)c2ccccc21 (centres undefined),,,"6.51 µM [falling, single point]"
COC(=O)N/N=C/c1cc(C)n(-c2cccc3ccccc23)c1C,5.21%,,
CCCCCn1c2nc3ccccc3nc2c2c(=O)n(CC(C)C)cnc21,40.3%,"0.517 µM [rising, full curve, poor fit]","1.84 µM [rising, partial curve]"
OCCOc1ccc(CN2CCN(CCCc3ccccc3)C(CCO)C2)cc1 (centres undefined),7.42%,,"29.1 µM [falling, single point]"
CC(C)(C)C(=O)NC1(C(F)(F)F)NC(=O)N(c2ccc(F)cc2)C1=O (centres undefined),148%,,
COc1ccc(CCNC(=O)/C=C/C(=O)O)cc1OC,-40.3%,"23.1 µM [falling, single point]",
Cc1ccc(NC(=O)CSc2nnc(C)c(=O)n2N)cc1Cl,-6.45%,,"13 µM [falling, partial curve]"
C/C(CC(=O)Nc1ccc2c(c1)OCCO2)=N\NC(=O)COc1ccc(C)cc1Br,-6.67%,,"4.11 µM [rising, single point]"

# Some of these compounds in order of molar mass, ascending.
Compound,cell number change,AC50 [1],AC50 [2]
COc1cccc(NC(=O)C(C)OC(=O)c2n[nH]c3ccccc23)c1 (centres undefined),-13%,,
O=C(CCN1C(=O)c2ccccc2S1(=O)=O)NCc1ccc(F)cc1,22.5%,"3.66 µM [rising, full curve, poor fit]","6.51 µM [rising, single point]"
O=S(=O)(Nc1ccc(Br)cc1)c1cccc2cccnc12,7.91%,,"0.651 µM [falling, partial curve, poor fit]"

# Following part:

Compound,cell number change,AC50 [1],AC50 [2]
COC(=O)C1=C(N)OC2=C(C(=O)CCC2)C1c1cccs1 (centres undefined),,"2.31 µM [falling, partial curve, poor fit]","2.06 µM [falling, partial curve]"
Cc1cc(=O)cc(C)n1-c1ccccc1N1CCOCC1,-42.5%,"1.3 µM [falling, full curve]","0.231 µM [falling, full curve]"
Cc1cccc(NC(=O)c2cnn(C)c2)c1C,-21.5%,,"6.51 µM [rising, single point]"
O=c1[nH]nc(SCc2nnc(-c3ccc([N+](=O)[O-])cc3)o2)n1C1CCCCC1,-16%,,"29.1 µM [falling, single point]"
CCCCNC(=O)CC(C(=O)N1CCc2ccccc21)n1ccnc1 (centres undefined),,"0.082 µM [rising, full curve, poor fit]","0.103 µM [rising, full curve, poor fit]"
CCOC(=O)N1CCC(NC(=O)c2cc(S(=O)(=O)N(CC)CC)ccc2F)CC1,-45%,"5.8 µM [falling, full curve, poor fit]","7.31 µM [falling, partial curve]"
COc1cc2c(cc1OC)C1=C(C#N)CN(CC(=O)O)CN1CC2,7.13%,,"7.31 µM [falling, partial curve, poor fit]"
Cc1c(Cl)cccc1NC(=S)Nn1cnnc1,-13.3%,,
Cn1c(N)c(C(=O)c2ccc(Oc3ccccc3)cc2)c(=O)n(C)c1=O,21%,,"2.59 µM [rising, partial curve]"
CCOC(=O)C1CCN(c2ncnc3c(C)csc23)CC1,-5.84%,,"0.651 µM [falling, single point]"
S=c1[nH]nc(-c2cccc(Cl)c2)n1Cc1ccccc1,,"6.51 µM [rising, single point]","0.206 µM [rising, full curve, poor fit]"
O=C(CCc1nnc(-c2ccc3c(c2)OCO3)o1)N1CCC(c2ccc(F)cc2)C1 (centres undefined),5.73%,,"6.51 µM [falling, single point]"
CCc1ccc(C(=O)N2CCN(c3ccc(NC(=O)c4ccco4)cc3)CC2)cc1,-2.21%,,"29.1 µM [falling, single point]"
O=C(c1cc(COc2ccc(F)cc2Cl)on1)N1CCCCCC1,,,"0.058 µM [rising, full curve, poor fit]"
Nn1c(SCc2cccc3ccccc23)nnc1-c1ccco1,32.2%,"0.82 µM [rising, full curve, poor fit]",
Cc1n[nH]c(=S)n1/N=C/c1ccc(Br)o1,,,"6.51 µM [falling, single point]"
COC(=O)C1Sc2[nH]c(=O)sc2C(c2ccc(Cl)cc2)C1C(=O)OC (centres undefined),2.3%,,
Cc1ccc(S(=O)(=O)N2CCCC(C(=O)NCC(C)C)C2)cc1 (centres undefined),-9.68%,,
COC(=O)c1cc(NC(=S)N2CCN(c3ccccn3)CC2)cc(C(=O)OC)c1,-6.15%,,"6.51 µM [falling, single point]"
CCC(C(=O)OCC(=O)Nc1ccc(F)cc1)c1ccccc1 (centres undefined),-18.7%,,"0.164 µM [falling, full curve, poor fit]"
